Measurements as given in patent publication US10829799 (UNIVERSITY COURT OF THE UNIVERSITY OF DUNDEE, dated 2020).

T1: endogenous UBA1 in HEK293 protein extract (human, UniProt P22314 2-1058, limits assumed)
T1 construct: In a cell lysate, identified by anti-UBA1 blot and molecular weight
T1 sequence (looked up): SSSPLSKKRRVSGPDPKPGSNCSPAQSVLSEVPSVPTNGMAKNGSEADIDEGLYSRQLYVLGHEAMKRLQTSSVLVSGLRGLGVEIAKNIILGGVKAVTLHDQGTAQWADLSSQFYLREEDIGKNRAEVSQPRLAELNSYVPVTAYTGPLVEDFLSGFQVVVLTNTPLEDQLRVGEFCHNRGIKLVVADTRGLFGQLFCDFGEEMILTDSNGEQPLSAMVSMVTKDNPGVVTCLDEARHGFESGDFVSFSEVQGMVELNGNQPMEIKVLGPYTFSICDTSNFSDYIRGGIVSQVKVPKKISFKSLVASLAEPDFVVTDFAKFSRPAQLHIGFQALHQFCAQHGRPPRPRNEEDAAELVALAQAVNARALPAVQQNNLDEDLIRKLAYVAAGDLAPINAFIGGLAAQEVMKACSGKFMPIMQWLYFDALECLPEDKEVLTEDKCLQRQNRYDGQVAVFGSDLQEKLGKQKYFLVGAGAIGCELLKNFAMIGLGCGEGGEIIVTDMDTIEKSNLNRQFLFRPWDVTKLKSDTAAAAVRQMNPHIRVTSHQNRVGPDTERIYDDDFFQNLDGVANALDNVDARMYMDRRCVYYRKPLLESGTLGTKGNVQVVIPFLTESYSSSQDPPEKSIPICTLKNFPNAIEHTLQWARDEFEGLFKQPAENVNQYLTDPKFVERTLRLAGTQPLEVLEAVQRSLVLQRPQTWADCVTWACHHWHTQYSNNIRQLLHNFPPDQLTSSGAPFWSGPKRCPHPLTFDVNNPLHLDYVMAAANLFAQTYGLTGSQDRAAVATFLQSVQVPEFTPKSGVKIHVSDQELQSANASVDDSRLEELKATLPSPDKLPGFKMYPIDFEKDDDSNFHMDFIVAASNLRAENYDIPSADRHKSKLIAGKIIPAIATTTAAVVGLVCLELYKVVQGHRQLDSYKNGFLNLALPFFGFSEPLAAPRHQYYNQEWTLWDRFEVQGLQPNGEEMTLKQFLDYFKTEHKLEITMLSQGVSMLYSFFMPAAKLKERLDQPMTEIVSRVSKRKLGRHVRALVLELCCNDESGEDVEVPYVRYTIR

B1: UBE2D1C86 thioacrylonitrile probe (enzyme)
chain: MSYYHHHHHHDYDIPTTENLYFQGAGSGSMALKRIQKELSDLQRDPPAHSSAGPVGDDLFHWQATIMGPPDSAYQGGVFFLTVHFPTDYPFKPPKIAFTTKIYHPNINSNGSICLDILRSQWSPALTVSKVLLSISSLLSDPNPDDPLVPDIAQIYKSDKEKYNRHAREWTQKYAM
modifications: catalytic cysteine labelled with TDMA 1 (thioacrylonitrile)
notes: Non-catalytic cysteines mutated to serine; the entry already holds these changes; also called UBE2D1 C86-=CN
B2: UBE2D1C86 thiomethyl acrylate probe (enzyme)
chain: B1 chain
modifications: catalytic cysteine labelled with TDMA 2 (thiomethyl acrylate)
notes: also called UBE2D1 C86-VME
B3: UBE2D3 thioacrylonitrile probe (enzyme)
chain: MGSSHHHHHHSSGLEVLFQGPGSALKRINKELSDLARDPPAQCSAGPVGDDMFHWQATIMGPNDSPYQGGVFFLTIHFPTDYPFKPPKVAFTTRIYHPNINSNGSICLDILRSQWSPALTISKVLLSICSLLCDPNPDDPLVPEIARIYKTDRDKYNRISREWTQKYAM
modifications: all 4 cysteines labelled with TDMA 1 (thioacrylonitrile)
notes: also called UBE2D3-=CN
B4: UBE2D3 thiomethyl acrylate probe (enzyme)
chain: B3 chain
modifications: all 4 cysteines labelled with TDMA 2 (thiomethyl acrylate)
notes: also called UBE2D3-VME
B5: UBE2D1 thioacrylonitrile probe (enzyme)
chain: MGSSHHHHHHSSGLVPRGSHMASMTGGQQMGRGSALKRIQKELSDLQRDPPAHCSAGPVGDDLFHWQATIMGPPDSAYQGGVFFLTVHFPTDYPFKPPKIAFTTKIYHPNINSNGSICLDILRSQWSPALTVSKVLLSICSLLCDPNPDDPLVPDIAQIYKSDKEKYNRHAREWTQKYAM
modifications: all 4 cysteines labelled with TDMA 1 (thioacrylonitrile)
notes: also called UBE2D1-=CN
B6: UBE2D1 thiomethyl acrylate probe (enzyme)
chain: B5 chain
modifications: all 4 cysteines labelled with TDMA 2 (thiomethyl acrylate)
notes: also called UBE2D1-VME

Target: T1, endogenous UBA1 in HEK293 protein …
Experiment: probe (5 uM) in HEK293 extract (125 ug), 3 h at 30 C, western blot
Method: Labelling was quenched by the addition of 1 part 4×LDS loading buffer (Life Technologies) supplemented with 715 mM 2-mercaptoethanol (BME) to 3 parts probe-treated protein extract. Proteins were resolved by SDS-PAGE (10%) and transferred to nitrocellulose membrane (20 V for 40-60 min) by semi-dry transfer using a Novex Semi-dry device (Life Technologies). Membranes were blocked by incubation with 5% milk powder in phosphate buffered saline+0.1% Tween 20 (PBST) for 1 h. His-tagged species were probed with 1:10000 anti-His primary antibody (Clontech) in PBST+5% milk powder for 30 min at room temperature. Detection was carried out by incubation with 1:2500 anti-mouse-HRP conjugated antibody (Cell Signalling Technologies) in PBST+5% milk powder for 1 h at room temperature. ECL Prime substrate (GE Life Sciences) was used for visualization in accordance with the manufacturers protocol. Probing for UBA1 was carried out with anti-UBA1 primary antibody (Sigma E3152) and incubated for 1 h at room temperature. Detection was carried out by incubation with 1:15000 anti-mouse-HRP conjugated antibody (Cell Signalling Technologies) in PBST+5% milk powder for 1 h at room temperature.
We next tested whether E2 probes could label endogenous proteins in a complex proteome. We prepared additional thioacrylonitrile and thiomethyl acrylate probes built on UBE2D1, UBE2D2, UBE2D3 and UBE2H. […] UBE2H was chosen as it only has a single catalytic cysteine. Human embryonic kidney cell (HEK293) extracts (125 μg) were incubated with empirically determined probe concentrations (5-25 μM).

Row | Binder | binding result
1 | B1 | binds
2 | B2 | binds
3 | B3 | binds
4 | B4 | binds
5 | B5 | binds
6 | B6 | binds
